Assay results reported in article PMC3975426.
Results are given in words; binding and its absence hold for the method and conditions named. In cells and extracts the contact can be indirect. Here binding means that the protein was enriched with, or labelled near, the bait; the list need not be complete. Values belong to the molecule of their own block, whether it stands above or below them.

By UniProt entry, the sequences of proteins in these tests, tags left out.
UniProt Q8N122: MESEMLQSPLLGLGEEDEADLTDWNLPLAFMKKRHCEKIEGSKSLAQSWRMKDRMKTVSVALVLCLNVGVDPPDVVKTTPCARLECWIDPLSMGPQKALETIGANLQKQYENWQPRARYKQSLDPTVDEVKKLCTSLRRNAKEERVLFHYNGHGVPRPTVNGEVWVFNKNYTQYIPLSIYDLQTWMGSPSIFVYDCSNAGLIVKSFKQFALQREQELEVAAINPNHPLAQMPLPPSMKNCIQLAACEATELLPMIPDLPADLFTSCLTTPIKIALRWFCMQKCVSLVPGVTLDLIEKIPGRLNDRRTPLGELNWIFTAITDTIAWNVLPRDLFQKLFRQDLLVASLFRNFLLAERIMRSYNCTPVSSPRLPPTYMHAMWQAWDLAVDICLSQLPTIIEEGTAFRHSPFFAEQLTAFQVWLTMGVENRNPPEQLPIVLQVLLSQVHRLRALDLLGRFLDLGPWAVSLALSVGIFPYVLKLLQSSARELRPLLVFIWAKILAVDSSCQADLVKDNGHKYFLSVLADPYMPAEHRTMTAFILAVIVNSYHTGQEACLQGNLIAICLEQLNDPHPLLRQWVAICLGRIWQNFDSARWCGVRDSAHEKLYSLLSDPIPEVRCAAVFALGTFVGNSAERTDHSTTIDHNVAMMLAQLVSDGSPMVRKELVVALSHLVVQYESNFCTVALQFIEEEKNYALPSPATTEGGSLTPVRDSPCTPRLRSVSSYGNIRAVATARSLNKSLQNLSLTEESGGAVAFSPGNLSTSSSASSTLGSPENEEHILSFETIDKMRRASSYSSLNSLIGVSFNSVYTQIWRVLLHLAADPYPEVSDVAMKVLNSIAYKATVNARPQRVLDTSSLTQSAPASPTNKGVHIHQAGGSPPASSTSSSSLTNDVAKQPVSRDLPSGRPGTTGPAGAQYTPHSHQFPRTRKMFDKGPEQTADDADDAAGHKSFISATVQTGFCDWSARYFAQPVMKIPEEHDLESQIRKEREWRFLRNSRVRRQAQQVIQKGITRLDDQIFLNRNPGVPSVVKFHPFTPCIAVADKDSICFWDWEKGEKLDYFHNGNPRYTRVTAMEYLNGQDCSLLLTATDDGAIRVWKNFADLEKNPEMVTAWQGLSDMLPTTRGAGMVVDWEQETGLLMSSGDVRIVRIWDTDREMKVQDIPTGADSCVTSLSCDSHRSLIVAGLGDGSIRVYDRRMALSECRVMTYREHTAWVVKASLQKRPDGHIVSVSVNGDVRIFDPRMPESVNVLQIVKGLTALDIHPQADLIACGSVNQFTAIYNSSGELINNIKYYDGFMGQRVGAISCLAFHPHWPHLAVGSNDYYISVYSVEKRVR
UniProt P04406: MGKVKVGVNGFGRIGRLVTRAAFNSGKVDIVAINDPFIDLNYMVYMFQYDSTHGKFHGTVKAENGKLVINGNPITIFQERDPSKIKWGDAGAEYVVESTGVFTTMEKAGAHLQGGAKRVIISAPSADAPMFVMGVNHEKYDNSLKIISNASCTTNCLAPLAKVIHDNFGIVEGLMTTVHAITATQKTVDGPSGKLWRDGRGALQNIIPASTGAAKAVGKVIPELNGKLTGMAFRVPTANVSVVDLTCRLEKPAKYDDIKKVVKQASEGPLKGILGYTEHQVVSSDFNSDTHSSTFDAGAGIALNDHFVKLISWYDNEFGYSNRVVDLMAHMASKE

Assays:
myc-tag raptor = myc-tag raptor (UniProt Q8N122); test: affinity purification with mass spectrometry; myc-tag raptor precipitated with myc-tag monoclonal antibody conjugated agarose beads (spin column) from transfected CCRF-CEM and HEK293 lysates in CHAPS buffer, overnight at 4 °C, glycine pH 2.8 elution; silver-stained lane cut, in-gel trypsin digestion, nano-LC ESI Q-TOF MS/MS; proteins of the mock control subtracted
[1] = biological target: regulatory-associated protein of mTOR (Raptor) (human (endogenous in CCRF-CEM and HEK293)) (UniProt Q8N122); test: affinity purification with mass spectrometry; endogenous raptor IP (raptor antibody, Dynabeads G) from CCRF-CEM and HEK293 lysates; Coomassie-stained lane cut, in-gel trypsin digestion, nano-LC ESI Q-TOF MS/MS; proteins of the mock control subtracted

- binding (myc-tag raptor): binds
- binding [1]: binds
Molecule: glyceraldehyde 3 phosphate dehydrogenase (from UniProt P04406 1-335)

- binding (myc-tag raptor): binds
- binding [1]: binds
B1: enhancer of mRNA decapping protein 4 (protein, UniProt Q6P2E9 1-1401)
chain: MASCASIDIEDATQHLRDILKLDRPAGGPSAESPRPSSAYNGDLNGLLVPDPLCSGDSTSANKTGLRTMPPINLQEKQVICLSGDDSSTCIGILAKEVEIVASSDSSISSKARGSNKVKIQPVAKYDWEQKYYYGNLIAVSNSFLAYAIRAANNGSAMVRVISVSTSERTLLKGFTGSVADLAFAHLNSPQLACLDEAGNLFVWRLALVNGKIQEEILVHIRQPEGTPLNHFRRIIWCPFIPEESEDCCEESSPTVALLHEDRAEVWDLDMLRSSHSTWPVDVSQIKQGFIVVKGHSTCLSEGALSPDGTVLATASHDGYVKFWQIYIEGQDEPRCLHEWKPHDGRPLSCLLFCDNHKKQDPDVPFWRFLITGADQNRELKMWCTVSWTCLQTIRFSPDIFSSVSVPPSLKVCLDLSAEYLILSDVQRKVLYVMELLQNQEEGHACFSSISEFLLTHPVLSFGIQVVSRCRLRHTEVLPAEEENDSLGADGTHGAGAMESAAGVLIKLFCVHTKALQDVQIRFQPQLNPDVVAPLPTHTAHEDFTFGESRPELGSEGLGSAAHGSQPDLRRIVELPAPADFLSLSSETKPKLMTPDAFMTPSASLQQITASPSSSSSGSSSSSSSSSSSLTAVSAMSSTSAVDPSLTRPPEELTLSPKLQLDGSLTMSSSGSLQASPRGLLPGLLPAPADKLTPKGPGQVPTATSALSLELQEVEPLGLPQASPSRTRSPDVISSASTALSQDIPEIASEALSRGFGSSAPEGLEPDSMASAASALHLLSPRPRPGPELGPQLGLDGGPGDGDRHNTPSLLEAALTQEASTPDSQVWPTAPDITRETCSTLAESPRNGLQEKHKSLAFHRPPYHLLQQRDSQDASAEQSDHDDEVASLASASGGFGTKVPAPRLPAKDWKTKGSPRTSPKLKRKSKKDDGDAAMGSRLTEHQVAEPPEDWPALIWQQQRELAELRHSQEELLQRLCTQLEGLQSTVTGHVERALETRHEQEQRRLERALAEGQQRGGQLQEQLTQQLSQALSSAVAGRLERSIRDEIKKTVPPCVSRSLEPMAGQLSNSVATKLTAVEGSMKENISKLLKSKNLTDAIARAAADTLQGPMQAAYREAFQSVVLPAFEKSCQAMFQQINDSFRLGTQEYLQQLESHMKSRKAREQEAREPVLAQLRGLVSTLQSATEQMAATVAGSVRAEVQHQLHVAVGSLQESILAQVQRIVKGEVSVALKEQQAAVTSSIMQAMRSAAGTPVPSAHLDCQAQQAHILQLLQQGHLNQAFQQALTAADLNLVLYVCETVDPAQVFGQPPCPLSQPVLLSLIQQLASDLGTRTDLKLSYLEEAVMHLDHSDPITRDHMGSVMAQVRQKLFQFLQAEPHNSLGKAARRLSLMLHGLVTPSLP
